Test results taken from the supplement of paper PMC10849652.
The list shows a part of the results.

Protein sequences, listed by entry. Tags and fused reporters are not part of them. Lines headed by an entry give the natural chain unless they say otherwise; changes in a name come on top.
UniProt O43167: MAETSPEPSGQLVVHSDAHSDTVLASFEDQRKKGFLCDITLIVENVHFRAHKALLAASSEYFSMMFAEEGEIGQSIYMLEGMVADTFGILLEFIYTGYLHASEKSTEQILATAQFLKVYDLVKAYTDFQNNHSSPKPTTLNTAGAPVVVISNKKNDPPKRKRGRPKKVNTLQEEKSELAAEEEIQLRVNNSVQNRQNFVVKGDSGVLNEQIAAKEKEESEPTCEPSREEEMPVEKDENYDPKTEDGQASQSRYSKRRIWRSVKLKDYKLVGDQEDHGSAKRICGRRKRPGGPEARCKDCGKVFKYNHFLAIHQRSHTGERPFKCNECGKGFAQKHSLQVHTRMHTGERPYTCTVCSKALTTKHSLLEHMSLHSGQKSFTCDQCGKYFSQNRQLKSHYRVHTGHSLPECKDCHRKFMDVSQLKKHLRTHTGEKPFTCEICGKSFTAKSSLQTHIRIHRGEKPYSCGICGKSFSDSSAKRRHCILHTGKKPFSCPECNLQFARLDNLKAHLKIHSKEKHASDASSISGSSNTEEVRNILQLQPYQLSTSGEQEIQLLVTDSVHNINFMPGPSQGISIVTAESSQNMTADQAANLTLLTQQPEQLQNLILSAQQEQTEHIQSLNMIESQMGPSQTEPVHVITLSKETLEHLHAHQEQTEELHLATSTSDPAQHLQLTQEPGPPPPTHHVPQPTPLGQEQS
UniProt Q9Y397: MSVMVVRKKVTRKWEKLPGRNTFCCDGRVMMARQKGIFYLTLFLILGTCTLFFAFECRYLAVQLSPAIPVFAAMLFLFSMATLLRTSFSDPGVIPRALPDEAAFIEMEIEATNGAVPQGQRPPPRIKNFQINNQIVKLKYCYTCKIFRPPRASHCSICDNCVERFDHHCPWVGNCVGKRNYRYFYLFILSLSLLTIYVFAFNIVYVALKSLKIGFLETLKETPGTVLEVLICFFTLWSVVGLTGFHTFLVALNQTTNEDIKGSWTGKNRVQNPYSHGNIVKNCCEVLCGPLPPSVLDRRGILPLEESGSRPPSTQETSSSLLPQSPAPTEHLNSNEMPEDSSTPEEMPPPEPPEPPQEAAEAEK
UniProt Q9NQZ6: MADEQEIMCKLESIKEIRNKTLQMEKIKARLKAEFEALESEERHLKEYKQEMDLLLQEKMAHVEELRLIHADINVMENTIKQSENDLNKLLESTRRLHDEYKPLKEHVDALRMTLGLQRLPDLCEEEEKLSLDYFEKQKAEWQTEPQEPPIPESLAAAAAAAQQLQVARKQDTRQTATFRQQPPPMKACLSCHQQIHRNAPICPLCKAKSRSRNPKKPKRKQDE
UniProt Q9ULC8: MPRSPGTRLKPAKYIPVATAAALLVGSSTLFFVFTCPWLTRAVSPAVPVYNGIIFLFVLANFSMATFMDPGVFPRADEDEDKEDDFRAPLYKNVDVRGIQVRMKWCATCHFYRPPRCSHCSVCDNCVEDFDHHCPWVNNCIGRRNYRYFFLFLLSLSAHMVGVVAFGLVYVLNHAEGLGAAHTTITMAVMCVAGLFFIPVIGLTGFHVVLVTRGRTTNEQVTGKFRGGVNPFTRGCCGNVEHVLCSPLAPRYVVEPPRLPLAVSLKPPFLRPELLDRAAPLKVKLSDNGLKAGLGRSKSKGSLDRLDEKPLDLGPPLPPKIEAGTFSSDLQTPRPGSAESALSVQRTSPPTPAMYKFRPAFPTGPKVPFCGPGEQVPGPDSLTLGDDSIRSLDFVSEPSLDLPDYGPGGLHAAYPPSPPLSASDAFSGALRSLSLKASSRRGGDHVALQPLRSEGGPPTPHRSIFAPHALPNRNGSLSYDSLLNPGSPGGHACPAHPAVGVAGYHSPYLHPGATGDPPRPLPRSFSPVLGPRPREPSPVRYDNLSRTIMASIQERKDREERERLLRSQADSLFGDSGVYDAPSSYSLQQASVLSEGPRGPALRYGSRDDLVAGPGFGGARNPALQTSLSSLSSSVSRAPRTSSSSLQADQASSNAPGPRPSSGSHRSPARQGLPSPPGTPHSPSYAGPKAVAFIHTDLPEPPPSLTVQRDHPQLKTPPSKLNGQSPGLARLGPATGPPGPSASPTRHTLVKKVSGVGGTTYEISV
UniProt Q6PJT7: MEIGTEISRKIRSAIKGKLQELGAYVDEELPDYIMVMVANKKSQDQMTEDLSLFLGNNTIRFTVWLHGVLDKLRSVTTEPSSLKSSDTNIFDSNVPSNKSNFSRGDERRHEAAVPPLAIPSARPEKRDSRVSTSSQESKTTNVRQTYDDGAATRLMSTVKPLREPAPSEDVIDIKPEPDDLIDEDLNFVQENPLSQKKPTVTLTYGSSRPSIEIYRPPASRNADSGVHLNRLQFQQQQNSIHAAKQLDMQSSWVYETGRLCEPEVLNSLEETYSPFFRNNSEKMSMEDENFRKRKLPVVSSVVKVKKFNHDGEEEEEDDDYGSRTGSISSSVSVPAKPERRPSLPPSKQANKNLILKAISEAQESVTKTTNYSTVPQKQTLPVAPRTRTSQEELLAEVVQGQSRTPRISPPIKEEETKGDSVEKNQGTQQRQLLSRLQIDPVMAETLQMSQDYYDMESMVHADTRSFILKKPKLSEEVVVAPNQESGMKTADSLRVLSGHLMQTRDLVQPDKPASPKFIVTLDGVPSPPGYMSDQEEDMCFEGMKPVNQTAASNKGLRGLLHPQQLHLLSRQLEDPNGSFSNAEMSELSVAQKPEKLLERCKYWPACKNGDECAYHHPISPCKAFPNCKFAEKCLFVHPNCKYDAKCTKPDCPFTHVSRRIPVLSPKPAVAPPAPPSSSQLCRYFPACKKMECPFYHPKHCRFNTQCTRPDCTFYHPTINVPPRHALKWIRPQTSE
UniProt O15060: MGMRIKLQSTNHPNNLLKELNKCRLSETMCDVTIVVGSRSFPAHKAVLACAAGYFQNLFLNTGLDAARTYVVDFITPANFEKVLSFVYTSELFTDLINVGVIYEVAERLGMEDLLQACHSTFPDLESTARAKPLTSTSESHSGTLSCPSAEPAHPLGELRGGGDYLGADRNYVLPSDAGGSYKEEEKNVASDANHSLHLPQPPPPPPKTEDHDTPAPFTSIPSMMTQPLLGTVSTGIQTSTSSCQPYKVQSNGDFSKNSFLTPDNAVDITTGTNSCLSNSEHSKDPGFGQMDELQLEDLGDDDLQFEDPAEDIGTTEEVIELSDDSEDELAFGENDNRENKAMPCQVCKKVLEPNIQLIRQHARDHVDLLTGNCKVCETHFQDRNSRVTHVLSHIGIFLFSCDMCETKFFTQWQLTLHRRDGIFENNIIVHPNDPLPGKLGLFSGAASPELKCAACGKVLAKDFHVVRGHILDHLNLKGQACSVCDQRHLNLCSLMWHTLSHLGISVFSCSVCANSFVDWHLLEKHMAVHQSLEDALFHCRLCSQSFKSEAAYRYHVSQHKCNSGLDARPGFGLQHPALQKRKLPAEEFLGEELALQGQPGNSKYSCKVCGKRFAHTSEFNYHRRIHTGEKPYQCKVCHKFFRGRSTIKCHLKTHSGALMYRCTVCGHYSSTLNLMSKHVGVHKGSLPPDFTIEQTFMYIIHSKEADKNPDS
UniProt Q9H869: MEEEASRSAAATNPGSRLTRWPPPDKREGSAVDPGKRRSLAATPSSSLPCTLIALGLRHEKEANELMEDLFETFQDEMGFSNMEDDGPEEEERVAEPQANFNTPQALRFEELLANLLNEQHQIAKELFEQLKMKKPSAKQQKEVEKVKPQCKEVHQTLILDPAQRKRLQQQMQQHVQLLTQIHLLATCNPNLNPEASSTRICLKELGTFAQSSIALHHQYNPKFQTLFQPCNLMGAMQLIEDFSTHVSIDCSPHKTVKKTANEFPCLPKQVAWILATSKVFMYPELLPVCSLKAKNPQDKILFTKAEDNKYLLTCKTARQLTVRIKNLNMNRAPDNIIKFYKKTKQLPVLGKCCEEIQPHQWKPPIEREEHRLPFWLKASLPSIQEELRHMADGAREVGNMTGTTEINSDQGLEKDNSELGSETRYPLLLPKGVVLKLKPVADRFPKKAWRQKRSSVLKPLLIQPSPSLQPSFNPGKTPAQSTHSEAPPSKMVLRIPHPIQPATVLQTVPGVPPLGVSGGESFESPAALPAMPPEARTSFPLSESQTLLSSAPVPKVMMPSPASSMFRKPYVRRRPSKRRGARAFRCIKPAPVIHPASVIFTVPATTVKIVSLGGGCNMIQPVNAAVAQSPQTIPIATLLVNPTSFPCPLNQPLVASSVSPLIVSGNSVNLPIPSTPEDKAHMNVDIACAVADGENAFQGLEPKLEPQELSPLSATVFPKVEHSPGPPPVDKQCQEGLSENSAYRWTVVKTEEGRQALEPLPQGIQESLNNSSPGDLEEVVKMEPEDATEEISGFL
UniProt Q8TBK6: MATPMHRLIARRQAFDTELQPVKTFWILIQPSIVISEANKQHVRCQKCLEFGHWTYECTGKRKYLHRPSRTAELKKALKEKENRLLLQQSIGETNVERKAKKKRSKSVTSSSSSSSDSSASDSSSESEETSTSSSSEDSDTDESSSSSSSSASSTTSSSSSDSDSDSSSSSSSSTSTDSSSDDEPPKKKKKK
UniProt Q96GR4: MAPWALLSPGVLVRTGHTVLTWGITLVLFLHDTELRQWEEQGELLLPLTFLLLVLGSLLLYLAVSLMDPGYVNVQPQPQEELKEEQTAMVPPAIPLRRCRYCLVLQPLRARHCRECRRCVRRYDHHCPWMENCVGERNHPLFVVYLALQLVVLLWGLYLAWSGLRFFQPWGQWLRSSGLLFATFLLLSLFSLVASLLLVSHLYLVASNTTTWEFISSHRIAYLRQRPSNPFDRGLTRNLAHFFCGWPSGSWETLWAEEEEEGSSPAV
UniProt C9J5V9: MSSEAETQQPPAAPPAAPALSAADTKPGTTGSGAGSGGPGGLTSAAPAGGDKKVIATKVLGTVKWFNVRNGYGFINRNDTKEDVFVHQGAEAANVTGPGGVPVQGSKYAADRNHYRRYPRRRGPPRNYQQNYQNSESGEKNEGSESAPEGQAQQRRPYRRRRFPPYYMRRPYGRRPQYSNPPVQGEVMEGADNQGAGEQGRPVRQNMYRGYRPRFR
UniProt Q8N3Z6: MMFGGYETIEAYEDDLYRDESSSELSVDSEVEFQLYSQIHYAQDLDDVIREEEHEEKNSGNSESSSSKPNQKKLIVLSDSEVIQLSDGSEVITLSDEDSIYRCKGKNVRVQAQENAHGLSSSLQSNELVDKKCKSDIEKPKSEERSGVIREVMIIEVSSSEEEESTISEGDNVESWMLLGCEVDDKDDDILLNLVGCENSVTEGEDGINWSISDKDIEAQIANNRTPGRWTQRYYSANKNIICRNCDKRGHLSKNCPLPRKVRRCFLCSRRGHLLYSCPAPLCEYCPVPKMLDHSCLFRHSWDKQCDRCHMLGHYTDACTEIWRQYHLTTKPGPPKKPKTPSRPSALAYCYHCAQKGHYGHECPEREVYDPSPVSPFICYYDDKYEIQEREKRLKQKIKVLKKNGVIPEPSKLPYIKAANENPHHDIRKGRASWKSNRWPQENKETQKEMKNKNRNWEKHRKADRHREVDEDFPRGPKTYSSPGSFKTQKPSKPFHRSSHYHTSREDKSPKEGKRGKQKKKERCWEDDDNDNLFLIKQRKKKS
UniProt Q8NCP5: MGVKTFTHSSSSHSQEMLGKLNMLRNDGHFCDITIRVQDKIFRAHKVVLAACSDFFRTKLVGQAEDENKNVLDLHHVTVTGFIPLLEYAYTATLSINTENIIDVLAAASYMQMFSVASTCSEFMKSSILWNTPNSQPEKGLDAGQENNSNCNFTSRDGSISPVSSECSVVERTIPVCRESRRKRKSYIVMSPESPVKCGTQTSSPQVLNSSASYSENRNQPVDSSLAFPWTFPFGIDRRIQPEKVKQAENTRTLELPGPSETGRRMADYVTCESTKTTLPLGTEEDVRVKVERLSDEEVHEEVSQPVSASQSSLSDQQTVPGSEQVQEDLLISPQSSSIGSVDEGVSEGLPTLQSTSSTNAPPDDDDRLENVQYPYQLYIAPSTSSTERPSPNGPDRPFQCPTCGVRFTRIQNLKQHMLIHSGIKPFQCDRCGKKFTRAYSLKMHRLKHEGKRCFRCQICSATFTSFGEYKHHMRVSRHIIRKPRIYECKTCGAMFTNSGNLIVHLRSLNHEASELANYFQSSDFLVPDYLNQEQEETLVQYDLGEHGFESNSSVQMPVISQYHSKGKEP
UniProt Q9UIJ5: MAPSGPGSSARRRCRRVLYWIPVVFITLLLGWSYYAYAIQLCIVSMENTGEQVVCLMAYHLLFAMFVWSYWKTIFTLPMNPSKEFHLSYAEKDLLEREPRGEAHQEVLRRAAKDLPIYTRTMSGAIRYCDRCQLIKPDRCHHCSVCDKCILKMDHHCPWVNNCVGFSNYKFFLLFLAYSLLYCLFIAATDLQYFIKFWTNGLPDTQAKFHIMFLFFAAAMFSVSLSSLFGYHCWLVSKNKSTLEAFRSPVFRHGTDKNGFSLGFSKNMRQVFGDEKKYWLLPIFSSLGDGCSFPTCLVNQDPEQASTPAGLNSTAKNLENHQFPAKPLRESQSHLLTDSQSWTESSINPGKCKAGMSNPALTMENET

Experiments:
Test in all cases: log2 fold change, soluble protein after heating vs DMSO (PISA); higher = thermal stabilisation; K562 lysate, 10 uM; active = over 0.2 and 3.5 SD of the protein, either way, in both replicates (recomputed)
vemurafenib = compound: CCCS(=O)(=O)Nc1ccc(F)c(C(=O)c2c[nH]c3ncc(-c4ccc(Cl)cc4)cc23)c1F [vemurafenib]
Procedure, shortened: (§1)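 Soluble protein was defined as the supernatant remaining after 21,000xg for 90 min, following pooling of heated aliquots and adjustment to 0.5% NP-40 at 4°C. Before that, crude K562 extract at 1 mg/mL protein in PBS pH 7.4 with 1 mM MgCl2 was treated with 10 μM compound for 30 min and heated for 3 min across 48°C-58°C. Quantification used TMTpro 16plex LC-MS/MS with channel sums equalised, and values are log-two fold changes in thermal stability relative to solvent controls from duplicates.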

[1] = compound: CCCS(=O)(=O)Nc1ccc(F)c(C(=O)c2c[nH]c3ncc(Cl)cc23)c1F
Procedure, shortened: as §1

barasertib = compound: CCN(CCCOc1ccc2c(Nc3cc(CC(=O)Nc4cccc(F)c4)[nH]n3)ncnc2c1)CCOP(=O)(O)O [barasertib]
Procedure, shortened: as §1

volasertib = compound: CC[C@@H]1C(=O)N(C)c2cnc(Nc3ccc(C(=O)N[C@H]4CC[C@H](N5CCN(CC6CC6)CC5)CC4)cc3OC)nc2N1C(C)C [volasertib]
Procedure, shortened: as §1

[2] = compound: CCn1c(C(=O)N(C2CC2)C2CC2)cc2c3c(ncn3C)c(Nc3cc(C)n(C)n3)nc21
Procedure, shortened: as §1

[3] = compound: CCn1cc(-c2ccnc3[nH]c(-c4cccc(CN(C)C)c4)cc23)c(-c2ccc(NC(=O)N(C)C)cc2)n1
Procedure, shortened: as §1

[4] = compound: CN1CCC(CNc2ccc3ncc(-c4cccc(OC(F)(F)F)c4)n3n2)CC1
Procedure, shortened: as §1

saracatinib = compound: CN1CCN(CCOc2cc(OC3CCOCC3)c3c(Nc4c(Cl)ccc5c4OCO5)ncnc3c2)CC1 [saracatinib]
Procedure, shortened: as §1

sotrastaurin = compound: CN1CCN(c2nc(C3=C(c4c[nH]c5ccccc45)C(=O)NC3=O)c3ccccc3n2)CC1 [sotrastaurin]
Procedure, shortened: as §1

alvocidib = compound: CN1CC[C@H](c2c(O)cc(O)c3c(=O)cc(-c4ccccc4Cl)oc23)[C@H](O)C1 [alvocidib]
Procedure, shortened: as §1

Tubastatin A = compound: CN1CCc2c(c3ccccc3n2Cc2ccc(C(=O)NO)cc2)C1 [Tubastatin A]
Procedure, shortened: as §1

[5] = compound: CNC(=O)C1=CC=CC=C1NC2=NC(=NC=C2Cl)NC3=C(C=C(C=C3)N4CCOCC4)OC
Procedure, shortened: as §1

defactinib = compound: CNC(=O)c1ccc(Nc2ncc(C(F)(F)F)c(NCc3nccnc3N(C)S(C)(=O)=O)n2)cc1 [defactinib]
Procedure, shortened: as §1

[6] = compound: CNc1nc(-c2ccc3c(N)n[nH]c3c2)cc(N2C[C@@H](C(=O)NC3CCCCC3)CC[C@H]2C)n1
Procedure, shortened: as §1

alisertib = compound: COc1cc(Nc2ncc3c(n2)-c2ccc(Cl)cc2C(c2c(F)cccc2OC)=NC3)ccc1C(=O)O [alisertib]
Procedure, shortened: as §1

[7] = compound: COc1cc2nc(-c3cc(F)ccc3O)nc(N[C@@H]3CNC[C@H]3C(C)(C)O)c2cc1OC
Procedure, shortened: as §1

gefitinib = compound: COc1cc2ncnc(Nc3ccc(F)c(Cl)c3)c2cc1OCCCN1CCOCC1 [gefitinib]
Procedure, shortened: as §1

[8] = compound: CC[C@@H]1C(=O)N(C)c2cnc(Nc3ccc(C(=O)NC4CCN(C)CC4)cc3OC)nc2N1C1CCCC1
Procedure, shortened: as §1

encorafenib = compound: COC(=O)N[C@@H](C)CNc1nccc(-c2cn(C(C)C)nc2-c2cc(Cl)cc(NS(C)(=O)=O)c2F)n1 [encorafenib]
Procedure, shortened: as §1

[9] = compound: COC(=O)[C@H](CCSC)NC(=O)C1=C(C=C(C=C1)NC[C@H](CS)N)C2=CC=CC=C2
Procedure, shortened: as §1

Measured: log2 fold change

ZFAND5 (UniProt O76080)
inactive: vemurafenib -0.02 | [1] -0.128 | barasertib -0.005 | volasertib -0.055 | [2] 0.047 | [3] -0.037 | [4] 0.048 | saracatinib -0.005 | sotrastaurin -0.154 | alvocidib -0.026 | Tubastatin A 0.141 | [5] -0.055 | defactinib -0.038 | [6] 0.067 | alisertib 0.02 | [7] 0.042 | gefitinib -0.058

YBEY (UniProt P58557)
inactive: vemurafenib -0.119 | [8] -0.054 | saracatinib -0.058 | [5] -0.056 | defactinib 0.016 | [6] -0.066 | encorafenib -0.037 | [9] 0.071

ZBTB14 (UniProt O43829)
inactive: [1] 0.084 | barasertib -0.041 | volasertib 0.064 | [2] -0.038 | [3] -0.131 | [4] 0.056 | saracatinib 0.057 | sotrastaurin -0.131 | alvocidib -0.027 | Tubastatin A 0.028 | [5] -0.065 | [6] -0.007 | alisertib -0.069 | [7] -0.018 | gefitinib 0.136

ZFP36L2 (UniProt P47974)
inactive: vemurafenib 0.025 | barasertib 0.086 | [8] 0.03 | [2] 0.173 | [3] 0 | [4] -0.098 | saracatinib -0.01 | sotrastaurin -0.006 | alvocidib -0.027 | Tubastatin A -0.23 | defactinib -0.005 | [6] 0.051 | encorafenib 0.069 | [9] -0.104 | alisertib -0.155 | gefitinib 0.301

ZFYVE1 (UniProt Q9HBF4)
inactive: [1] -0.012 | barasertib 0.018 | volasertib 0.051 | [2] -0.022 | [3] -0.011 | [4] -0.158 | saracatinib -0.016 | sotrastaurin 0.16 | alvocidib 0.22 | Tubastatin A 0.055 | [5] 0.084 | [6] 0.019 | alisertib 0.247 | [7] 0.018 | gefitinib 0.151

ZBTB24 (UniProt O43167)
inactive: [1] 0.04 | barasertib -0.01 | [8] 0.051 | volasertib -0.141 | [2] -0.047 | [3] -0.026 | [4] -0.032 | saracatinib -0.005 | sotrastaurin 0.023 | alvocidib 0.047 | Tubastatin A 0.089 | [5] -0.068 | [6] 0.078 | encorafenib -0.081 | [9] -0.117 | alisertib -0.059 | [7] -0.062 | gefitinib -0.253

ZBTB43 (UniProt O43298)
inactive: vemurafenib -0.023 | [1] -0.009 | [8] 0.051 | volasertib 0.036 | [2] 0 | saracatinib -0.01 | sotrastaurin -0.02 | Tubastatin A 0.016 | [5] 0.081 | defactinib -0.106 | [6] 0.022 | encorafenib -0.025 | [9] -0.047 | [7] -0.01

ZADH2 (UniProt Q8N4Q0)
inactive: vemurafenib 0.06 | [1] -0.008 | barasertib 0.017 | volasertib 0.311 | [2] -0.05 | [3] -0.076 | [4] 0.045 | saracatinib 0.035 | sotrastaurin -0.021 | alvocidib -0.025 | Tubastatin A -0.055 | [5] -0.067 | defactinib 0.075 | [6] 0.22 | alisertib 0.008 | [7] -0.042 | gefitinib -0.169

ZC3H12A (UniProt Q5D1E8)
inactive: [8] 0.143 | [2] -0.003 | saracatinib 0.156 | sotrastaurin 0.009 | Tubastatin A -0.037 | [5] -0.115 | [6] -0.177 | encorafenib 0.08 | [9] -0.03 | alisertib -0.109 | gefitinib 0.177

YBX2 (UniProt Q9Y2T7)
inactive: barasertib 0.001

ZDHHC9 (UniProt Q9Y397)
inactive: [2] -0.081 | [3] -0.055 | [4] -0.125 | sotrastaurin 0.035 | alvocidib -0.092 | Tubastatin A 0.11 | [5] 0.083

ZCRB1 (UniProt Q8TBF4)
inactive: [1] -0.002 | volasertib 0.01 | [2] -0.006 | [3] -0.072 | [4] 0.011 | saracatinib 0.092 | sotrastaurin 0.01 | alvocidib 0.001 | Tubastatin A -0.013 | [5] 0.082 | [6] 0.056 | alisertib 0.021 | [7] 0.047 | gefitinib -0.073

ZC4H2 (UniProt Q9NQZ6)
inactive: sotrastaurin -0.42

XRCC2 (UniProt O43543)
inactive: barasertib -0.014 | [3] -0.091 | [4] -0.079 | saracatinib 0.014 | sotrastaurin -0.049 | alvocidib 0.071 | [6] 0.084 | alisertib 0.111 | gefitinib -0.31

YIPF1 (UniProt Q9Y548)
inactive: [1] -0.028 | barasertib -0.06 | volasertib -0.039 | saracatinib -0.002 | sotrastaurin 0.004 | [6] 0.092 | alisertib 0.157 | [7] 0.046 | gefitinib -0.006

XPOT (UniProt F5GYW6)
inactive: [1] -0.204 | volasertib -0.112 | [7] 0.121

Two successive entries out of the list so far, for reference:
ZBTB14 (UniProt O43829)
inactive: [1] 0.084 | barasertib -0.041 | volasertib 0.064 | [2] -0.038 | [3] -0.131 | [4] 0.056 | saracatinib 0.057 | sotrastaurin -0.131 | alvocidib -0.027 | Tubastatin A 0.028 | [5] -0.065 | [6] -0.007 | alisertib -0.069 | [7] -0.018 | gefitinib 0.136

ZFP36L2 (UniProt P47974)
inactive: vemurafenib 0.025 | barasertib 0.086 | [8] 0.03 | [2] 0.173 | [3] 0 | [4] -0.098 | saracatinib -0.01 | sotrastaurin -0.006 | alvocidib -0.027 | Tubastatin A -0.23 | defactinib -0.005 | [6] 0.051 | encorafenib 0.069 | [9] -0.104 | alisertib -0.155 | gefitinib 0.301

More results follow.

ZDHHC8 isoform 3 (UniProt Q9ULC8)
inactive: [3] -0.187 | [4] 0.111 | alvocidib -0.101

ZBTB17 isoform 2 (UniProt Q13105)
inactive: [1] -0.029 | barasertib 0.011 | volasertib 0.035 | saracatinib 0.066 | sotrastaurin -0.144 | [5] -0.076 | [6] 0.027 | [7] 0.015

ZC3H14 isoform 11 (UniProt Q6PJT7)
inactive: sotrastaurin 0.177

ZFYVE19 isoform 3 (UniProt Q96K21)
inactive: [1] 0.048 | barasertib -0.037 | volasertib -0.231 | [7] -0.006

YIPF2 (UniProt Q9BWQ6)
inactive: [2] 0.02 | [3] -0.071 | [4] -0.069 | sotrastaurin -0.004 | alvocidib -0.32 | Tubastatin A 0.224 | [5] 0.041

ZFHX4 isoform 5 (UniProt Q86UP3)
inactive: [1] 0.157 | barasertib 0.084 | volasertib 0.143 | [2] 0.118 | sotrastaurin -0.009 | Tubastatin A -0.266 | [5] 0.037 | alisertib -0.142 | [7] -0.124 | gefitinib 0.023

ZBTB39 (UniProt O15060)
inactive: [2] -0.021 | saracatinib -0.138 | Tubastatin A 0.2 | [6] 0.161

Pulled one by one from the list above (2):
YIPF2 (UniProt Q9BWQ6)
inactive: [2] 0.02 | [3] -0.071 | [4] -0.069 | sotrastaurin -0.004 | alvocidib -0.32 | Tubastatin A 0.224 | [5] 0.041

ZC3H14 isoform 11 (UniProt Q6PJT7)
inactive: sotrastaurin 0.177

The results go on:

YY1AP1 isoform 9 (UniProt Q9H869)
inactive: [8] -0.242 | [2] 0.044 | [3] 0.337 | [4] -0.112 | saracatinib -0.28 | sotrastaurin 0.018 | alvocidib 0.075 | Tubastatin A 0.037 | [5] 0.337 | [6] 0.198 | encorafenib 0.03 | [9] 0.122

ZCCHC10 (UniProt Q8TBK6)
inactive: barasertib -0.056 | [8] -0.363 | [2] 0.099 | saracatinib -0.078 | sotrastaurin 0.03 | Tubastatin A -0.228 | [6] 0.222 | encorafenib -0.098 | [9] 0.105

ZFAND1 (UniProt Q8TCF1)
inactive: barasertib -0.309 | [8] 0.063 | [2] -0.021 | [3] 0.417 | [4] -0.293 | saracatinib -0.018 | sotrastaurin -0.038 | alvocidib 0.241 | Tubastatin A -0.025 | [6] -0.035 | encorafenib -0.115 | [9] 0.091

XRCC5 (UniProt C9JZ81)
inactive: [1] 0.009 | volasertib -0.035 | alisertib -0.022 | [7] 0.103 | gefitinib 0.23

ZDHHC12 isoform 3 (UniProt Q96GR4)
inactive: sotrastaurin 0.039

YBX1 (UniProt C9J5V9)
inactive: [3] -0.092 | [4] 0.059 | sotrastaurin -0.043 | alvocidib -0.255

ZBED6 (UniProt P86452)
inactive: [1] 0.12 | volasertib 0.045 | [2] -0.188 | saracatinib -0.009 | Tubastatin A 0.096 | [5] -0.063 | [6] 0.33 | [7] 0.179

ZC3H10 (UniProt Q96K80)
inactive: barasertib 0.012 | saracatinib -0.011 | sotrastaurin -0.048 | [6] 0.032

ZBTB34 (UniProt Q8NCN2)
inactive: [1] 0.106 | barasertib 0.358 | volasertib -0.006 | [2] 0.111 | saracatinib -0.063 | Tubastatin A -0.154 | [6] 0.253 | [7] -0.018

ZCCHC7 (UniProt Q8N3Z6)
inactive: saracatinib -0.055 | sotrastaurin 0.095 | [6] -0.109 | alisertib -0.085 | gefitinib 0.152

ZFAT (UniProt Q9P243)
inactive: [8] -0.046 | [5] 0.015 | encorafenib -0.015 | [9] 0.007 | alisertib 0.12 | gefitinib 0.171

ZBTB7B isoform 2 (UniProt O15156)
inactive: barasertib -0.157 | saracatinib -0.099 | sotrastaurin 0.015 | [6] 0.007

ZC3H3 (UniProt Q8IXZ2)
inactive: [1] -0.221 | volasertib 0.062 | [3] 0.117 | [4] -0.152 | alvocidib 0.069 | [7] 0.046

ZFX isoform 3 (UniProt P17010)
inactive: [1] -0.139 | volasertib 0.055 | [2] 0.055 | saracatinib 0.03 | sotrastaurin 0.01 | Tubastatin A -0.099 | [6] -0.052 | [7] -0.082

ZBTB44 (UniProt Q8NCP5)
inactive: sotrastaurin 0.182

ZBTB37 (UniProt Q5TC79)
inactive: [2] 0.051 | sotrastaurin 0.167 | Tubastatin A 0.063

ZDHHC2 (UniProt Q9UIJ5)
inactive: [1] 0.009 | [8] -0.392 | volasertib 0.009 | [2] 0.041 | [3] 0.026 | [4] -0.032 | sotrastaurin -0.094 | alvocidib -0.044 | Tubastatin A -0.087 | [5] -0.044 | encorafenib 0.084 | [9] -0.375 | [7] -0.052

ZBED5 (UniProt Q49AG3)
inactive: saracatinib -0.029 | [5] -0.051 | [6] 0.036
